Assay results published in paper PMC6090531.
No constants are given. Whether binding was seen depends on the method and setting. Binding seen in cells or lysates may run through a third protein. Some entries that bind do so weakly or less than the wild type.

Sequences of proteins named here, by UniProt entry; tags and fusion partners are left off. Residues count along the entry.
UniProt Q9UM47, residues 40-2321: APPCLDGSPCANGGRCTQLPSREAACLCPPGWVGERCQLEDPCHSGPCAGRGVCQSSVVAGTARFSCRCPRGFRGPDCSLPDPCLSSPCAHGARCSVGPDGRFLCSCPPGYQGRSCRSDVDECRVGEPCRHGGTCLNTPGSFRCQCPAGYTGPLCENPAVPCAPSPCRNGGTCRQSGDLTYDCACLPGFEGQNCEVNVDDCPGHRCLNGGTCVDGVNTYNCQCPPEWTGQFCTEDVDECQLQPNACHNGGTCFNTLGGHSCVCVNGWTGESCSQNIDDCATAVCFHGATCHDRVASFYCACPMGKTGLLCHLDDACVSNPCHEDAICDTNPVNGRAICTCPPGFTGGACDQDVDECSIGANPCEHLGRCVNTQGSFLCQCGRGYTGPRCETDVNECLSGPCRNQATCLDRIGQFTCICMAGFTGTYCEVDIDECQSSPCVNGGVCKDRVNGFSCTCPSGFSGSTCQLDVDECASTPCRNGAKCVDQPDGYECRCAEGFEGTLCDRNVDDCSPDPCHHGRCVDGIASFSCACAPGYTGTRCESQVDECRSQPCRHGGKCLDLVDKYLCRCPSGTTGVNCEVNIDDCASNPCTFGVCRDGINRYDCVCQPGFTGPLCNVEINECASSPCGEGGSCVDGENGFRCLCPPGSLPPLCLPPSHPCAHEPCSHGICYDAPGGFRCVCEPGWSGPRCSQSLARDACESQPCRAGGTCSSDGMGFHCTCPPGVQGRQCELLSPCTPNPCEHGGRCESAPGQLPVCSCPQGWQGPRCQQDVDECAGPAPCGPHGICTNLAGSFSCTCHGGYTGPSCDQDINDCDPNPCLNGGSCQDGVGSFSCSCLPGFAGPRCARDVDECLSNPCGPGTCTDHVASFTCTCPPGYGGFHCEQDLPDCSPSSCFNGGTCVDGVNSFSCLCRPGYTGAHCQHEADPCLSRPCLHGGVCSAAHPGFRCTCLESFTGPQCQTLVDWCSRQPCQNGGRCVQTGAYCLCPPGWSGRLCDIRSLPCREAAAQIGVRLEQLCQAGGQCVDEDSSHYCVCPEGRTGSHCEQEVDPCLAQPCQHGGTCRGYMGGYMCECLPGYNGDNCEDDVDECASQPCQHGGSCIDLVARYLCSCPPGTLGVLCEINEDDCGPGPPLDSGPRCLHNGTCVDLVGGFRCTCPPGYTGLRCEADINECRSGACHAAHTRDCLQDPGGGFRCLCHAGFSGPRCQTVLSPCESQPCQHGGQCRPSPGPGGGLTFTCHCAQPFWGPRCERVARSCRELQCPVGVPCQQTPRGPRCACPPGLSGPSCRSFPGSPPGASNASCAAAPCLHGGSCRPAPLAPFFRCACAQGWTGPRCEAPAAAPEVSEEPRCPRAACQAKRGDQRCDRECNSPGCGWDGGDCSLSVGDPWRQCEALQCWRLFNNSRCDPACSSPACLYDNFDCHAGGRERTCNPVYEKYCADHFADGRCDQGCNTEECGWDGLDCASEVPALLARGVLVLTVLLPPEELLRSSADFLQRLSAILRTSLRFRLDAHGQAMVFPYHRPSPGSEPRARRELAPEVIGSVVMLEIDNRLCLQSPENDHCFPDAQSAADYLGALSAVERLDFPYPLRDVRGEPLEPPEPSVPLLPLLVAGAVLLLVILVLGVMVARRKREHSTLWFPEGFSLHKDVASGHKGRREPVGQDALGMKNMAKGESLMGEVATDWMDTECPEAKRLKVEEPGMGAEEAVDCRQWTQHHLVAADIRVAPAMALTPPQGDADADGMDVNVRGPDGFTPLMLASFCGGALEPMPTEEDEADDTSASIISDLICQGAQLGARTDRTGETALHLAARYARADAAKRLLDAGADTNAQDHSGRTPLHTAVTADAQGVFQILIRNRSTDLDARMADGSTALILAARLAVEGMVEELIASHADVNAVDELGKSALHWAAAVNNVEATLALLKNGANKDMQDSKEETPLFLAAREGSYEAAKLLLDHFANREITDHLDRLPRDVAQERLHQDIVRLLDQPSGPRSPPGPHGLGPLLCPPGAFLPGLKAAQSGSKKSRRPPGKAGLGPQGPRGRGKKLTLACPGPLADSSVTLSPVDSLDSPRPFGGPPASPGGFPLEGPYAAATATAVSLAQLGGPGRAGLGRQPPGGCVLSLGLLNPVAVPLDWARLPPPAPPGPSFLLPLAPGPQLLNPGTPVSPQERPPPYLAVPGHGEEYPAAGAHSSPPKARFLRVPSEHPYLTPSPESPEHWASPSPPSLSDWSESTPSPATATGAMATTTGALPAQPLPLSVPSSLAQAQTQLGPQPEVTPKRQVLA
UniProt P35222: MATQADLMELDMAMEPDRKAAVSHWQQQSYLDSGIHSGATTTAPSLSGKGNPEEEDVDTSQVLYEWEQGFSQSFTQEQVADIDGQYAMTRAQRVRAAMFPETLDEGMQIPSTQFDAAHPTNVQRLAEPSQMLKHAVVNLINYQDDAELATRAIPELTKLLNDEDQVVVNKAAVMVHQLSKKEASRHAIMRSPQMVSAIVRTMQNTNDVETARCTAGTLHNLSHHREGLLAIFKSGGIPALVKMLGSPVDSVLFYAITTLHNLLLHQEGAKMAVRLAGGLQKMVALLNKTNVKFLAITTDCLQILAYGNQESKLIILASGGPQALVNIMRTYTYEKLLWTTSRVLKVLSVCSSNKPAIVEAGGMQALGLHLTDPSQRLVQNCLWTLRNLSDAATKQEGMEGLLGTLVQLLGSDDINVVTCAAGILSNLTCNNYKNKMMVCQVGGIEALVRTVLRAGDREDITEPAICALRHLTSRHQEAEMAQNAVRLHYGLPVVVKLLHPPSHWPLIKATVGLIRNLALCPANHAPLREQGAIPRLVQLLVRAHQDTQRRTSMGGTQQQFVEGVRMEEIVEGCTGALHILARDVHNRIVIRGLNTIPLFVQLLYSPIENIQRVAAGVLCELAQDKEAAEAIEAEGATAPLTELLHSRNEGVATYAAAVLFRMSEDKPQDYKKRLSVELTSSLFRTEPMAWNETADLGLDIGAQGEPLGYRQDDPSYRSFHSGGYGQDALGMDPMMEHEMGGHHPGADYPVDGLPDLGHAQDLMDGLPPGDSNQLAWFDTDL

Target: Notch3 (human (endogenous in HCC827 and HCC4006)) (UniProt Q9UM47)
Assay: co-IP; endogenous proteins; 2 mg lysate of HCC827 or HCC4006 cells in NP40 lysis buffer (10 mM phosphate, 120 mM NaCl, 2.7 mM KCl, 1% Nonidet P40, 10% glycerol); IP with anti-Notch3 (D11B8) or, reciprocally, anti-β-catenin (D10A8), protein G magnetic beads, western blot; cells treated with DMSO or 0.1 μM erlotinib for 1 or 6 days, or erlotinib and gamma secretase inhibitor alone or combined

β-catenin (from UniProt P35222 1-781) was tested, and the binding was “binds”.
